According to the supplement of paper PMC11150407:
In all, about 3,000 compounds went through this assay and about 45 (2%) showed an effect of 50% or more. The list shows a part of the results.

Test system: MOLM1 and UCSD/AML1 (averaged)
Assay: cell viability relative to DMSO control (POC); higher = less growth inhibition
Conditions: 1 µM; 72 h
Procedure: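 Primary viability screen in the 3q26 EVI1-high AML cell lines MOLM1 and UCSD/AML1, compounds at 1 uM for 72 h. ATP CellTiter-Glo read-out given as percent viable over DMSO control (POC), averaged over duplicates. This mapping covers the TimTec NDL-3000 natural derivative library, whose compounds are identified by TimTec catalogue codes (ST...).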

Compared with `Cn1c(SCC(=O)Nc2cccc(F)c2)nc2c(=O)[nH]cnc21`, `CCc1cccc(NC(=O)CSc2nc3c(=O)[nH]cnc3n2C)c1` is higher in cell viability: 86.7% for the first, 101% for the second.

First: Cc1nc2c(nc(SCC(=O)Nc3ccc(C)c(F)c3)n2C)c(=O)[nH]1
Second: Cc1ccc(C)c(NC(=O)CSc2nc3c(=O)[nH]cnc3n2C)c1
The cell viability of the first is higher: 103% for the first, 91.2% for the second.

Compared with `CCn1c(SCc2ccc(C)cc2)nc2c(=O)[nH]cnc21`, `Cc1ccc(C)c(CSc2nc3c(=O)[nH]cnc3n2C)c1` is higher in cell viability: 90.8% for the first, 95% for the second.

Compared with `Cc1ccc(NCCC(=O)c2ccc3c(c2)OCO3)cc1C`, `COc1ccc(C(=O)CCNc2ccccc2)cc1OC` is higher in cell viability: 95.1% for the first, 97.5% for the second.

Going from `O=C(NCCc1c[nH]c2ccccc12)C1CC1(c1ccccc1)c1ccccc1` (stereo not given) to `Cc1[nH]c2ccccc2c1CCNC(=O)/C(=C/c1ccccc1)NC(=O)c1cccc(Br)c1`, the cell viability falls from 105% to 91.8%.

First: COc1ccc(CCNC(=O)CCl)cc1OC
Second: COc1ccc(CC(C)(C)O)cc1OC
The cell viability of the first is higher: 103% for the first, 96.5% for the second.

Going from `CNc1nc(C(N)=O)c(NC(=O)c2ccc(OC)c(OC)c2)s1` to `COc1ccc(C(=O)Nc2sc(Nc3ccc(C)cc3)nc2C(N)=O)cc1OC`, the cell viability rises from 90.9% to 101%.

Going from `COCC(=O)c1c(O)cc(OC)cc1OC` to `COc1cc(CCC(C)=O)ccc1O`, the cell viability falls from 100% to 93.8%.

Going from `CC(NC(=O)CSc1nc2ccccc2c(=O)[nH]1)c1ccccc1` (stereo not given) to `O=C(CSc1nc2ccccc2c(=O)[nH]1)Nc1cccc(Br)c1`, the cell viability falls from 103% to 90.3%.

Compared with `C=CCn1c(SCc2cc(=O)[nH]c3ccccc23)nnc1-c1cccc(Br)c1`, `N#Cc1cccc(NC(=O)CSc2nc3ccccc3c(=O)[nH]2)c1` is higher in cell viability: 101% for the first, 104% for the second.

First: O=C(O)c1nc2ccccc2[nH]c1=O
Second: Cc1[nH]c2ccccc2c1CCNC(N)=O
The cell viability of the first is lower: 98.1% for the first, 98.3% for the second.

Compared with `Cn1c2c(c(=O)n(C)c1=O)C(C(F)(F)F)(C(F)(F)F)N=C(Cc1ccccc1)N2`, `O=Cc1ccc(-c2cc(OC(F)(F)F)cc(OC(F)(F)F)c2)o1` is higher in cell viability: 91.5% for the first, 102% for the second.

First: COc1ccc(/C=C/C(=O)N2CCc3c([nH]c4ccccc34)C2c2ccc(OC)cc2)cc1 (stereo not given)
Second: CCOc1ccc(C2c3[nH]c4ccccc4c3CCN2C(=O)c2cccc(Br)c2)cc1 (stereo not given)
The cell viability of the first is lower: 90.2% for the first, 90.9% for the second.

First: COc1ccc(C(=O)CCNc2ccc(C(=O)O)cc2)cc1OC
Second: COc1ccc(C(=O)NCc2ccccc2)cc1OC
The cell viability of the first is higher: 109% for the first, 94.4% for the second.

Compared with `Cn1c(=O)[nH]c(=O)c2c1nc(NCCO)n2CC(O)COc1ccc(Cl)cc1` (stereo not given), `Cn1c(SCC(=O)O)nc2c1c(=O)[nH]c(=O)n2C` is lower in cell viability: 116% for the first, 101% for the second.

Compared with `COC(=O)C1=C(C)NC2=C(C(=O)CCC2)C1c1ccc(O)c(OC)c1` (stereo not given), `CCOc1cc(C2C(C(=O)OCCc3ccccc3)=C(C)NC3=C2C(=O)CCC3)cc(Br)c1O` (stereo not given) is higher in cell viability: 92.4% for the first, 110% for the second.

Compared with `Cc1cc2oc(-c3ccc(Br)cc3)cc(=O)c2cc1Cl`, `Cc1cc2occ(C#N)c(=O)c2cc1Cl` is lower in cell viability: 114% for the first, 102% for the second.

Going from `Cc1cc(C(=O)NC(Cc2ccccc2)C(=O)O)c(C)o1` (stereo not given) to `NC(=O)C(Cc1ccccc1)NC(=O)c1ccc2c(c1)OCO2` (stereo not given), the cell viability falls from 94.5% to 92.1%.

Compared with `CCOC(=O)c1ccccc1NC(=O)C(C)C`, `N[C@@H](CCC(=O)Nc1cccc2ccccc12)C(=O)O` is lower in cell viability: 103% for the first, 96.7% for the second.

Compared with `COc1ccc2[nH]c(C)c(CCNC(=O)c3cc4ccccc4oc3=O)c2c1`, `COc1ccc(NC(=O)c2cc3ccccc3oc2=N)cc1` is lower in cell viability: 94.3% for the first, 93.8% for the second.

Compared with `CC(C)c1ccc(NC(=O)Cn2c(=O)cc(C(=O)N3CCc4ccccc4C3)c3ccccc32)cc1`, `CCc1cccc(C)c1NC(=O)Cn1c(=O)cc(C(=O)N2CCc3ccccc3C2)c2ccccc21` is lower in cell viability: 97.1% for the first, 95.5% for the second.

Compared with `COC(=O)C1=CNC=C(C(=O)OC)C1c1cc(OC)c(OC)c(OC)c1`, `COc1cc(CNC(=O)c2ccc([N+](=O)[O-])cc2)cc(OC)c1OC` is lower in cell viability: 110% for the first, 88.7% for the second.

First: c1ccc2c(NC3CCCC3)nc(N3CCNCC3)nc2c1
Second: Cc1[nH]c2c(C)cccc2c(=O)c1CN1CCCCC1C (stereo not given)
The cell viability of the first is higher: 98.7% for the first, 94.6% for the second.

Going from `COCCOC(=O)c1c(C)n(CCCNc2ccc([N+](=O)[O-])cc2)c2ccc(O)cc12` to `CCCc1ccc(OCCn2c(C)c(C(=O)OC)c3cc(O)c4ccccc4c32)cc1`, the cell viability falls from 96% to 91.3%.

Compared with `N#Cc1ccccc1/C=C/C(=O)O`, `O=C(O)C1Cc2ccccc2CN1` (stereo not given) is higher in cell viability: 99.1% for the first, 104% for the second.

Compared with `CCOC(=O)c1c(CSCc2ccccc2)n(-c2ccccc2)c2cc(Br)c(OC)cc12`, `CCOC(=O)C1Cc2c([nH]c3ccccc23)C(c2ccc(OC)c(CN3CCN(c4ccccc4OC)CC3)c2)N1` (stereo not given) is lower in cell viability: 110% for the first, 102% for the second.

Going from `O=C(COC(=O)/C=C/c1ccccc1)Nc1ccccc1` to `O=C(/C=C/C=C/c1ccccc1)/C=C/C=C/c1ccccc1`, the cell viability falls from 107% to 100%.

Going from `COC(=O)CNC(=O)c1cccc(Cl)c1` to `COC(=O)CNC(=O)c1ccc([N+](=O)[O-])cc1Cl`, the cell viability falls from 95.3% to 91.1%.

Going from `CCN(CC)c1ccc(C2C3CCCCC3(O)CCN2C(=O)/C=C/c2ccc(OC)c(OC)c2)cc1` (stereo not given) to `COc1cc(C2C3CCCCC3(O)CCN2CC(=O)Nc2ccc(C)cc2)ccc1O` (stereo not given), the cell viability falls from 102% to 87.9%.

Going from `CNC(=S)NNC(=O)c1ccc(OC)c(OC)c1` to `COc1ccc(C(=O)Nc2sc3c(c2C(N)=O)CCCCC3)cc1OC`, the cell viability rises from 102% to 104%.

Compared with `COc1ccc(C2c3[nH]c4ccccc4c3CCN2Cc2ccccc2F)cc1` (stereo not given), `COc1ccc(C2c3[nH]c4ccccc4c3CCN2CC(=O)Nc2cccc3ccccc23)cc1` (stereo not given) is lower in cell viability: 98% for the first, 85% for the second.

Compared with `COc1cc(/C=N\Nc2nc(-c3cccc([N+](=O)[O-])c3)cs2)cc(OC)c1O`, `COc1cc(C(=O)Nc2cccc(C#N)c2)cc(OC)c1OC` is higher in cell viability: 66.4% for the first, 102% for the second.

Going from `CC(C)CCCC(C)C1CCC2C3CC=C4CC(OC(=O)c5cccc([N+](=O)[O-])c5)CCC4(C)C3CCC12C` (stereo not given) to `CCOCCOC(=O)C1=C(C)NC2=C(C(=O)CC(C)(C)C2)C1c1cc(Cl)c(O)c(OC)c1` (stereo not given), the cell viability rises from 94.3% to 104%.

Compared with `Cc1ccc(-n2c(SCC(=O)Nc3ccc(C)c(F)c3)nc3c(=O)[nH]cnc32)cc1`, `Cc1ccc(C)c(NC(=O)CN2CCN(Cc3cc(=O)oc4cc(C)ccc34)CC2)c1` is lower in cell viability: 103% for the first, 98.3% for the second.

Compared with `COc1ccc(C(=O)N2CCN(C(=O)c3ccccc3OC)CC2)cc1OC`, `COc1cc(OC)cc(C(=O)N2CCN(C(=O)c3ccc(F)cc3)CC2)c1` is higher in cell viability: 105% for the first, 107% for the second.

First: Cc1cc(C)c(NC(=O)Cn2c(=O)cc(C(=O)N3CCCCC3)c3ccccc32)c(C)c1
Second: Cc1c(Cl)cccc1NC(=O)Cn1c(=O)cc(C(=O)N(C)C)c2ccccc21
The cell viability of the first is lower: 99.4% for the first, 108% for the second.

First: OCC1COCC(O)C(O)C(O)C1O (stereo not given)
Second: CC(C)=C(CC(=O)O)C(=O)O
The cell viability of the first is lower: 100% for the first, 104% for the second.

Going from `Cc1cc2c(C(C)C)c(O)c(O)c(C=NC3CCS(=O)(=O)C3)c2c(O)c1-c1c(C)cc2c(C(C)C)c(O)c(O)c(C=NC3CCS(=O)(=O)C3)c2c1O` (stereo not given) to `Cc1cc2c(C(C)C)c(O)c(O)c(/C=N/N3CCN(C)CC3)c2c(O)c1-c1c(C)cc2c(C(C)C)c(O)c(O)c(/C=N/N3CCN(C)CC3)c2c1O`, the cell viability falls from 96.1% to 4.5%.

Going from `CCOc1cc(C2C(C#N)=C(N)OC3=C2C(=O)CC(C)(C)C3)cc([N+](=O)[O-])c1O` (stereo not given) to `COc1cc(C2C(C#N)=C(N)Oc3n[nH]c(C)c32)cc(OC)c1O` (stereo not given), the cell viability rises from 101% to 108%.

Going from `COc1cccc(NC(=O)COc2ccc3c4c(c(=O)oc3c2C)CCC4)c1` to `COc1ccc(C(=O)/C=C/c2ccc(OC)c(COc3cccc(C)c3C)c2)cc1`, the cell viability rises from 102% to 104%.

First: CC(C)Oc1ccccc1C1Nc2ccccc2NC2=C1C(=O)CC(c1ccc(Cl)cc1)C2 (stereo not given)
Second: Cc1ccc(C2CC(=O)c3cccc(Cl)c3O2)cc1 (stereo not given)
The cell viability of the first is higher: 80.3% for the first, 59.1% for the second.

First: Cc1ccc2c(c1)c1c3n2CCN(CCC#N)C3CCC1 (stereo not given)
Second: CS(=O)(=O)c1ccc2nc(NC(=O)CN3CCN(CCO)CC3)sc2c1
The cell viability of the first is higher: 98% for the first, 87.9% for the second.

First: CC(=O)Oc1ccc2c(c1)oc(=O)c1c3cc(OC(C)=O)c(OC(C)=O)cc3oc21
Second: CC(=O)COc1ccc2c(=O)c(Oc3ccccc3Cl)coc2c1
The cell viability of the first is lower: 105% for the first, 117% for the second.

Compared with `COc1cc(OC)cc(C(c2c(C)[nH][nH]c2=O)C(C#N)C#N)c1` (stereo not given), `COc1cc(C(=O)NCc2ccc3c(c2)OCO3)c(Br)c(OC)c1OC` is higher in cell viability: 103% for the first, 105% for the second.

Compared with `Cc1ccc(/C=C/C(=O)Oc2ccc(C=Nc3cccc(C(F)(F)F)c3)cc2)cc1`, `Cc1ccc(C(=O)/C=C/c2ccc(Cl)cc2Cl)cc1` is higher in cell viability: 109% for the first, 113% for the second.

Compared with `COc1ccc(CCNC(=O)C2Cc3ccccc3CN2S(=O)(=O)c2cccs2)cc1OC` (stereo not given), `O=C(Nc1ccc(Br)cc1)C1Cc2ccccc2CN1S(=O)(=O)c1cccs1` (stereo not given) is higher in cell viability: 90.9% for the first, 94.1% for the second.

Going from `O=c1[nH]cc(NCCCO)c(=O)[nH]1` to `CCCCc1ccc(NCCC(=O)c2cc3ccccc3oc2=O)cc1`, the cell viability rises from 101% to 102%.

Going from `CCCCCC(CCC#N)C(=O)O` (stereo not given) to `CC(C)(C)OC(=O)N[C@@H](Cc1ccc(O)cc1)C(=O)O`, the cell viability rises from 106% to 107%.

First: Cc1cc(C)c2c(N)c(C(=O)N3CCC[C@H]3C(=O)O)sc2n1
Second: Cc1nn(-c2ccccc2)c(C)c1CN1CCN(C(=O)c2ccc3c(c2)OCO3)CC1
The cell viability of the first is higher: 103% for the first, 98.5% for the second.

Compared with `CCOc1cc2c(cc1OCC)C(c1cccc(OC)c1O)NCC2` (stereo not given), `CCOc1cc2c(cc1OC)C(c1ccc3c(c1)OCO3)NCC2` (stereo not given) is higher in cell viability: 93.2% for the first, 93.7% for the second.

Compared with `COc1cc(C(=O)CC2(O)C(=O)N(Cc3c(Cl)cccc3Cl)c3ccccc32)cc(OC)c1OC` (stereo not given), `CCN(CC)C(=O)c1cc(=O)n(CC(=O)Nc2ccc3c(c2)OCCO3)c2ccccc12` is higher in cell viability: 99.8% for the first, 100% for the second.

Going from `Cc1cc2c(c(O)c1-c1c(C)cc3c(c1O)/C(=C/Nc1ccc(S(=O)(=O)Nc4nccs4)cc1)C(=O)C(O)=C3C(C)C)/C(=C/Nc1ccc(S(=O)(=O)Nc3nccs3)cc1)C(=O)C(O)=C2C(C)C` to `O=C(CN1CCc2ccccc2C1)Nc1cc(C(F)(F)F)ccc1Cl`, the cell viability rises from 97.8% to 105%.

`CCn1cc(/C=C\C(=O)c2ccc3c(c2)OCO3)cn1` gave a cell viability of 83.6%.
